Test results reported in US20070184126A1, “Water-soluble bound matter of proanthocyandin and composition containing the same” (TOYO SHINYAKU CO., LTD., priority 2004, published 2007).

Experiment: Conjugate formation determined by silica gel TLC against standards
Type: physicochemical
Set-up: key: + indicates that the spot was detected at the same position as the standard.; − indicates that the spot was not detected at the same position as the standard

NCC(=O)O [Comparative Example 3, glycine]
−: Standard Catechin (TLC spot) (spot at position of catechin standard (Rf value: 0.8), 10 μL sample) | Standard Dimer (TLC spot) (spot at position of proanthocyanidin B-2 (Rf value: 0.6)) | Standard Trimer (TLC spot) (spot at position of proanthocyanidin C-1 (Rf value: 0.4))
